Results deposited as PubChem BioAssay AID1259300 (Sanger Institute, 2017).
Here is a random part of 794 reagents. 18 of them (2.3%) count as active. 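Calls rest on knock-down alone, not drug synergy; depositor treated synergy scores above 0.15 as synergistic; drug doses alone had little viability effect.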 A number with no mark means an inactive call. No viability above 1 is reported: the scale is capped. Further read-outs or replicates are left out here. Not given: the amount of reagent, the time to read-out.

- Purpose: 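siRNA screen of kinases and common colorectal cancer mutant genes, alone or with drugs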 (primary screen)
- Cell system: HCT15 colorectal cancer cells
- Reagent: siRNA pool against human genes
- Treatment: anchor drug or DMSO vehicle added 24 h after seeding: BYL719 1 µM, cetuximab 5 µg/ml, trametinib 10 nM; drug doses chosen to barely affect viability alone
- Detection: 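Replicate-mean viability relative to non-targeting pool control with robust z-score for knock-down without drug; per-drug synergy scores for BYL719 (1 µM), cetuximab (5 µg/ml), trametinib (10 nM)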
- Scale: viability z-score, siRNA alone: higher = more viable cells after knock-down; viability vs non-targeting, siRNA alone: higher = more viable cells
- Rule for the call: 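a knock-down without drug that drives the robust viability z-score under -3 is active, i.e. essential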
- Meaning of the calls: active = essential: knock-down alone lowers viability (z below -3); inactive = no strong viability loss with knock-down alone

FLT1 (fms related receptor tyrosine kinase 1) → viability z-score, siRNA alone: 0.625; viability vs non-targeting, siRNA alone: 1
EIF2AK4 (eukaryotic translation initiation factor 2 alpha kinase 4) → viability z-score, siRNA alone: 0.567; viability vs non-targeting, siRNA alone: 0.996
PIM1 (Pim-1 proto-oncogene, serine/threonine kinase) → viability z-score, siRNA alone: -0.265; viability vs non-targeting, siRNA alone: 0.935
PIK3R4 (phosphoinositide-3-kinase regulatory subunit 4) → viability z-score, siRNA alone: -0.539; viability vs non-targeting, siRNA alone: 0.915
STK36 (serine/threonine kinase 36) → viability z-score, siRNA alone: 0.625; viability vs non-targeting, siRNA alone: 1
AMHR2 (anti-Mullerian hormone receptor type 2) → viability z-score, siRNA alone: 0.625; viability vs non-targeting, siRNA alone: 1
EPHA2 (EPH receptor A2) → viability z-score, siRNA alone: 0.625; viability vs non-targeting, siRNA alone: 1
NEK6 (NIMA related kinase 6) → viability z-score, siRNA alone: 0.625; viability vs non-targeting, siRNA alone: 1
TTBK2 (tau tubulin kinase 2) → viability z-score, siRNA alone: 0.625; viability vs non-targeting, siRNA alone: 1
CDKL3 (cyclin dependent kinase like 3) → viability z-score, siRNA alone: 0.625; viability vs non-targeting, siRNA alone: 1
CDK3 (cyclin dependent kinase 3) → viability z-score, siRNA alone: 0.0808; viability vs non-targeting, siRNA alone: 0.96
TAOK1 (TAO kinase 1) → viability z-score, siRNA alone: 0.625; viability vs non-targeting, siRNA alone: 1
KSR2 (kinase suppressor of ras 2) → viability z-score, siRNA alone: 0.625; viability vs non-targeting, siRNA alone: 1
TRIB3 (tribbles pseudokinase 3) → viability z-score, siRNA alone: 0.625; viability vs non-targeting, siRNA alone: 1
ERN2 (endoplasmic reticulum to nucleus signaling 2) → viability z-score, siRNA alone: 0.625; viability vs non-targeting, siRNA alone: 1
MPP1 (MAGUK p55 scaffold protein 1) → viability z-score, siRNA alone: 0.625; viability vs non-targeting, siRNA alone: 1
CAMK2B (calcium/calmodulin dependent protein kinase II beta) → viability z-score, siRNA alone: 0.625; viability vs non-targeting, siRNA alone: 1
NEK1 (NIMA related kinase 1) → viability z-score, siRNA alone: -0.0258; viability vs non-targeting, siRNA alone: 0.953
EFNA4 (ephrin A4) → viability z-score, siRNA alone: 0.418; viability vs non-targeting, siRNA alone: 0.985

Laid out differently: results already given
{"gene": "EPHA2 (EPH receptor A2)", "viability z-score, siRNA alone": 0.625, "viability vs non-targeting, siRNA alone": 1}
{"gene": "NEK6 (NIMA related kinase 6)", "viability z-score, siRNA alone": 0.625, "viability vs non-targeting, siRNA alone": 1}
